The text below walks through data of publication PMC10163288.

Sequences and labels used below:
B1: il10ra_site1_normal_mot_HHH_b2_03425_000000200_0001_22_39_H_._HHH_b2_00266_0001_0000500010_0000002_0 (protein)
chain: SSSSDESEEIYELLREAIELIREGNPEEAREVLEQARELAEENNNENLLFIVEFLERELNSSSSS
B2: il10ra_site1_sap_15_mot_HHH_b1_05357_000000034_0001_23_39_H_._HHH_b2_04748_0001_0000300023_0000002_0_0001 (protein)
chain: SSSSSDREAEQRAKALLWFAKWIRNEDAARIVLERAEEIAEELGDEELLEEIRELLEKLKSSSSS
B3: il10ra_site1_normal_mot_HHH_b2_03220_af2_000000223_0001_23_40_H_._HHH_b1_04932_0001_0000500057_0000001_0 (protein)
chain: SSSSSEETERIWELLRRILELIANGDPEEAEELLEEVRELIEEAGSEVLRFALRAIERALNSSSS
B4: il10ra_site1_normal_mot_HHH_b1_03333_000000091_0001_1_17_H_._HHH_b1_08449_af2_0001_0000300014_0000002_0 (protein)
chain: SSSSTEEYEELKRLIEEIVKAIRNNDPELVEELLRELEELIEETNNIAAKFSLRILEEALSSSSS
B5: il10ra_site1_normal_mot_HHH_b1_05757_000000171_0001_42_57_H_._cd9e2f3926f312894f93ac78c729c102_0001_1_0001_0000100001_0000001_0_af2pred_dldesign_0_af2pred (protein)
chain: VELLVEAIKRLSEKHPDDPEVQALVREAARLLLEGKPEEAAKLLKEAAELAGDAEVLALVEKVLE
B6: il10ra_site1_normal_mot_HHH_b2_06199_000000213_0001_1_17_H_._HHH_b1_05284_0001_0000100001_0000001_0 (protein)
chain: SSSSSNEEEAQKAARRLLEAAKQVEDPERVRLALRFALFLARQANDEELEEEIEELLKEYSSSSS
B7: il10ra_site1_normal_mot_HEEHE_1605_000000211_0001_40_56_H_._544ef0e38e907b7890d4414ebae48784_0001_1_0001_0000100002_0000001_0_af2pred_0001 (protein)
chain: TEEELIEELAKLLGLPPETVRLALERLEELEGDPERAVRSFLLALKLSGKLTPEVEELLEKIART
B8: il10ra_site1_sap_16_mot_HHH_b1_06914_000000033_0001_1_18_H_._HHH_b2_07672_0001_0000100004_0000002_0_0001 (protein)
chain: SSSSSSDEVLELSLEAFRLSLRGDPEEAREVLEEALELARERGDERLAHVIEDLLKAASSSSSSS
B9: il10ra_site1_normal_mot_HHH_b2_00984_000000042_0001_1_20_H_._HHH_b2_04396_af2_0001_0000400016_0000001_0 (protein)
chain: SSSSDEEERLRELLERLEELLEEGDLRELSRLAQEALRLAYRLGDKETLQEIWELIRRLHSSSSS
B10: il10ra_site1_sap_25_mot_HHH_b1_06837_000000150_0001_20_37_H_._HHH_b2_02609_0001_0000600038_0000001_0_0001 (protein)
chain: SSSSSSVEELAEEAEELARERGDEEALTLVEAIQRLAEQGILDPRFAELSLELLIELLRESSSSS
B11: il10ra_site1_sap_20_mot_HHH_b1_02997_000000220_0001_39_52_H_._HHH_b2_01069_af2_0001_0000100007_0000001_1_0001_af2pred_0001 (protein)
chain: SSSSSSEERRRAVELLREAARIDDEEKAREIAEEVEELAEELNDPVLKIAVRFLLEQLKSSSSSS
B12: il10ra_site1_normal_mot_HHH_b2_06979_000000158_0001_42_57_H_._HHH_b1_03152_0001_0000200036_0000001_0 (protein)
chain: SSSSDEVEELYELVRELAELLHEGDEERFEEVLEQAKRLAEEANDRLTLINLEFLERDLKSSSSS
B13: il10ra_site1_normal_mot_HHH_b2_03183_af2_000000055_0001_40_56_H_._HHH_b2_08078_0001_0000100001_0000002_0 (protein)
chain: SSSSNREELIEAALRLLEQAIELGDPRAARFLIIAIKIAVEETNDEEAREELERLEELLNSSSSS
B14: il10ra_site1_sap_21_mot_39ab2cb694c8b9c1dc7e65c0d672c93e_0001_000000036_0001_53_65_H_._HHH_b1_04427_0001_0000100002_0000001_0_0001 (protein)
chain: SSSSDLAQEAAHLSLEAFRLALRGDPEEAEEVLREAEELAERAGDERLLKQIRNLLKAQKSSSSS
B15: il10ra_site1_sap_8_mot_05ca327611f5605f0dd8494b449afcbf_0001_1_000000248_0001_35_51_H_._HHH_b1_07641_0001_0000300015_0000002_0_0001_af2pred_0001 (protein)
chain: SSSSSSSELERLLEEIEEALERGDPQEALKLSREAARLAAELNDKEVLKILAELLREIFSSSSSS
B16: il10ra_site1_sap_24_mot_HHH_b1_06914_000000280_0001_1_18_H_._HHH_b1_06388_0001_0000100003_0000002_0_0001 (protein)
chain: SSSSLEERVVELAFEAVELLANGNPEEAEEVLEEARELAEELNDEELRRYVEIAEHFVKSHSSSS
B17: il10ra_site1_normal_mot_HHH_b2_04168_af2_000000050_0001_1_20_H_._0831bd5750e541fe76d95d22628dacf8_0001_0001_0000500006_0000001_0 (protein)
chain: SEVEELAEEAKRKNDADLAFKAFKVLLQELLKRGIPPERAKEIALEVARELGNPYLERLAEASLL
B18: il10ra_site1_sap_14_mot_HHH_b1_06788_af2_000000238_0001_19_36_H_._HHH_b1_00610_0001_0000500077_0000001_0_0001_af2pred_0001 (protein)
chain: SSSSSEILREVSYLLIRAYALASQGNPEEAEKVLEEARELAEENNDERARLSVELLEEFLSSSSS
B19: il10ra_site1_normal_mot_HHH_b2_00475_000000107_0001_44_57_H_._HHH_b1_04904_0002_0000200015_0000002_0 (protein)
chain: SSSSDIIEVLYRLQHAVAKGDEEEIEELLEELEELLKKASEEERKYIEILLHFARAQLELLSSSS

This is one part of the list.

In the assay the target is il10ra, Q13651. The assay can be described thus: yeast display titration.
In the case of B1, the “apparent Kd” value is “inactive: no binding seen”.
The same measure for B2: “inactive: no binding seen”; for B3: “inactive: no binding seen”; for B4: “inactive: no binding seen”.
Consider B5, for which the “apparent Kd” value was “inactive: no binding seen”.
The same measure for B6: “inactive: no binding seen”; for B7: “inactive: no binding seen”; for B8: “inactive: no binding seen”.
The same measure for B9: “inactive: no binding seen”; for B10: “inactive: no binding seen”.
The same measure for B11: “inactive: no binding seen”; for B12: “inactive: no binding seen”.
For B13, the “apparent Kd” value is “inactive: no binding seen”.
The same measure for B14: “inactive: no binding seen”; for B15: “inactive: no binding seen”; for B16: “inactive: no binding seen”.
The same measure for B17: “inactive: no binding seen”.
The same measure for B18: “inactive: no binding seen”.
Regarding B19, the “apparent Kd” value is “inactive: no binding seen”.
